Some of these results come from one statement about several compounds together.
Legend:
[1] = biological target: T1, human topoisomerase I (Homo sapiens, UniProt P11387); test: Topo I cleavage assay (plasmid YEpG DNA); type: biochemical
T1 construct: 15 amino acid vector-derived fusion (pET-11a leader); made in house; host or cells: E. coli BL21(DE3)
T1 sequence (P11387 1-765): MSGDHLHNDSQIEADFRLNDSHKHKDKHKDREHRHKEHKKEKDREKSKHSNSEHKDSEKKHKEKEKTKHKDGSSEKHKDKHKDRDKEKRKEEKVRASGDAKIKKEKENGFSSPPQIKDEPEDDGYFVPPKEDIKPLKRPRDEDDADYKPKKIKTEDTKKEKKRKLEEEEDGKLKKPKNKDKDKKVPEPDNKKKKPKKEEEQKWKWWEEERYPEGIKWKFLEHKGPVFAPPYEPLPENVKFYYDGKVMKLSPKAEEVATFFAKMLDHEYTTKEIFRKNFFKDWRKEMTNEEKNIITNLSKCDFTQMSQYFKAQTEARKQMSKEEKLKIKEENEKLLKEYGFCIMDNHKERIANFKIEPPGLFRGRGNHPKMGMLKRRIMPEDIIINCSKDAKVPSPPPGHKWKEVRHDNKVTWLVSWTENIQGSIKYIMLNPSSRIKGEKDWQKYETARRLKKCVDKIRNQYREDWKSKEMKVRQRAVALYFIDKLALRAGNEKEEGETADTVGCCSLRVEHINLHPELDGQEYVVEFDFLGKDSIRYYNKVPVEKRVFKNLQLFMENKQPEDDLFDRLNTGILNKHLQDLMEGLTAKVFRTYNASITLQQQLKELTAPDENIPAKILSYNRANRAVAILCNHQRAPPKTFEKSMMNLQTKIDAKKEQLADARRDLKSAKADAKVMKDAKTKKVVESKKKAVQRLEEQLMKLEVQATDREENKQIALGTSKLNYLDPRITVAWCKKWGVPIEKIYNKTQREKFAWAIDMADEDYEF
From the text: To obtain large quantity of human topoisomerase I, the human topoisomerase I cDNA was cloned into the pET-11a vector, in which transcription of the cDNA is under the control of the inducible T7 promoter (Studier et al., Methods in Enzymol., Vol. 185:60-89, San Diego: Academic Press (1990)). Briefly, a 3.4 kb DNA fragment containing the entire coding sequence of human topoisomerase I and approximately 1 kb of untranslated region downstream of the stop codon was isolated from the plasmid YCpGAL1-hTOP1 (Bjornsti et al., Cancer Res. 49:6318-6323 (1989)) by cutting at the BamHI and EcoRI sites. The vector pET-11a was cut with the same restriction enzymes, dephosphorylated and ligated to the insert in the proper reading-frame downstream of the vector cloning site. The ligation mixture was used to transform E. coli, the correct clone pET1B was isolated (see figure 2A for the map) and its identity confirmed by restriction mapping. Since the translational start in pET is positioned at an upstream NdeI site, the expressed topoisomerase I has a 15 amino acid fusion at its N-terminus. pET1B was then transformed into E. coli BL21(DE3), and, upon induction with 0.4 mM IPTG for 1 hour, the bacterial lysate was analyzed by 10 % SDS-PAGE. […]

[2] = test system: calf thymus topoisomerase II; test: Topo II cleavage assay (plasmid YEpG DNA); type: biochemical
From the text: The plasmid pET11a and the E. coli strain BL21(DE3) used for enzyme expression were purchased from Novagen. IPTG was purchased from Sigma. The ECL system used for the Western blotting analysis of bacterial lysates was from Amersham (UK). All the restriction enzymes and Vent polymerase were from New England Biolabs. Mammalian topoisomerase II was isolated from calf thymus glands according to the published procedure (Halligan et al., J. Biol. Chem. 260:2475-2482 (1985)). The single copy yeast plasmids YCpGAL1 expressing various topoisomerase I genes in JN2-134 yeast strain were a kind gift of Dr. M-A. Bjornsti (Thomas Jefferson University, Philadelphia, PA). All bacterial and yeast media were from Difco (Detroit, MI), while cell culture media were purchased from Gibco-BRL (Gaithersburg, MD).
Cleavage assays for the recombinant topoisomerases I and calf thymus topoisomerases I and II were done as described (Liu et al., J. Biol. Chem. 258:15365-15370 (1983)). The plasmid YEpG DNA used for the cleavage assays was prepared and labeled at its 3'-end using the published procedures.

Row | Compound | activity as topoisomerase I poison (in words) [1] | activity as topoisomerase II poison (in words) [2]
1 | COc1ccc2cc3[n+](cc2c1OC)CCc1cc2c(cc1-3)OCO2 [Berberine, reference compound] | inactive | 
2 | COc1ccc(Cc2nccc3cc(OC)c(OC)cc23)cc1OC [Compound 9a] | very weak activity | very weak activity
3 | COc1cc([C@@H]2c3cc4c(cc3[C@@H](O[C@@H]3O[C@@H]5CO[C@@H](c6cccs6)O[C@H]5[C@H](O)[C@H]3O)[C@H]3COC(=O)[C@H]23)OCO4)cc(OC)c1O [VM-26, reference compound] |  | highly potent topoisomerase II poison

— patent EP0888346B1, “CORALYNE ANALOGS AS TOPOISOMERASE INHIBITORS” (RUTGERS, THE STATE UNIVERSITY OF NEW JERSEY, priority 1996, dated 1997)
